In PMC10510397 (Journal of Medicinal Chemistry, 2023):
Numbered stars: 1 amine (or outer) side, 2 acyl side, 3 side chain; on linkers, the order of the positions; unused ones are H or OH. Bridge positions count the residues as written; N and C are the ends. Square brackets hold non-standard residues; d marks the D form. CH2COCH2 = O=C(C[*:1])C[*:2]; CH2 = C([*:1])[*:2]; Mpa = O=C(O)CCS

Assay: general procedure: Fmoc solid-phase peptide synthesis; rink amide or 2-chlorotrityl chloride resin; HCTU/DIPEA; HATU/DIPEA for N-terminal 3-(tritylthio)propanoic acid
Conditions: cyclisation step, 214 nm
With “[Mpa]YGGFLRRCRPKLK-NH2 (linker 1-9 via CH2)” the “final HPLC purity” value was 97.3%.
In the case of “[Mpa]YGGFLRRCRPKLK-NH2 (linker 1-9 via CH2COCH2; SMILES CC(C)C[C@H](NC(=O)[C@H](CCCCN)NC(=O)[C@@H]1CCCN1C(=O)[C@H](CCCNC(=N)N)NC(=O)[C@@H]1CSCC(=O)CSCCC(=O)N[C@@H](Cc2ccc(O)cc2)C(=O)NCC(=O)NCC(=O)N[C@@H](Cc2ccccc2)C(=O)N[C@@H](CC(C)C)C(=O)N[C@@H](CCCNC(=N)N)C(=O)N[C@@H](CCCNC(=N)N)C(=O)N1)C(=O)N[C@@H](CCCCN)C(N)=O)”, the “final HPLC purity” value is reported as 96.3%.
For “[Mpa]YGGFLRRCRPKLK-OH (linker 1-9 via CH2; SMILES CC(C)C[C@H](NC(=O)[C@H](CCCCN)NC(=O)[C@@H]1CCCN1C(=O)[C@H](CCCNC(=N)N)NC(=O)[C@@H]1CSCSCCC(=O)N[C@@H](Cc2ccc(O)cc2)C(=O)NCC(=O)NCC(=O)N[C@@H](Cc2ccccc2)C(=O)N[C@@H](CC(C)C)C(=O)N[C@@H](CCCNC(=N)N)C(=O)N[C@@H](CCCNC(=N)N)C(=O)N1)C(=O)N[C@@H](CCCCN)C(=O)O)”, the “final HPLC purity” value was 97.8%.
With “[Mpa]YGGFLRRCRPKLK-OH (linker 1-9 via CH2COCH2; SMILES CC(C)C[C@H](NC(=O)[C@H](CCCCN)NC(=O)[C@@H]1CCCN1C(=O)[C@H](CCCNC(=N)N)NC(=O)[C@@H]1CSCC(=O)CSCCC(=O)N[C@@H](Cc2ccc(O)cc2)C(=O)NCC(=O)NCC(=O)N[C@@H](Cc2ccccc2)C(=O)N[C@@H](CC(C)C)C(=O)N[C@@H](CCCNC(=N)N)C(=O)N[C@@H](CCCNC(=N)N)C(=O)N1)C(=O)N[C@@H](CCCCN)C(=O)O)” the “final HPLC purity” value was 98.5%.
